Laboratory results taken from PMC6390652 (Toxicological Sciences, 2018).

Test system: Caco-2 cells
Settings: human

`CCCCc1oc2ccccc2c1C(=O)c1cc(I)c(OCCN(CC)CC)c(I)c1` [Amiodarone] was tested, and the “Caco-2 TEER IC15/Cmax” value was 7.
